Some of the results follow.
Assay: up-regulation of insulin promoter-GFP reporter – imaging, high-content screening, mouse beta cells (AID 1625);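 note: total cells summed across four imaged fields per well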
Conditions: MIN6 insulin promoter-GFP reporter, measured here: cytotoxicity, nuclei count, at 5 µM

Row | Structure (SMILES) | cell count
1 | COc1ccc(C(=O)NCC2(N3CCCCC3)CCCCC2)c(OC)c1OC | 1610 cells
2 | N#CC1(Nc2ccccc2)CCN(Cc2ccccc2)CC1 | 1070 cells
3 | O=C(OC1CN2CCC1CC2)C1c2ccccc2Oc2ccccc21 (configuration not stated) | 776 cells
4 | O=C(NCC1(N2CCOCC2)CCCCC1)c1cc2ccccc2o1 | 948 cells
5 | COc1ccc(NC2CCN(CCc3ccccc3)CC2)c(OC)c1 | 1080 cells
6 | CCOc1ccc(C)cc1CN(CCCl)CCCl | 1320 cells
7 | Cc1ccc(OCC(C)C)c(CN(CCCl)CCCl)c1 | 1090 cells
8 | O=C(NCC1(N2CCCCC2)CCCCC1)c1cccc([N+](=O)[O-])c1 | 1280 cells
9 | N#CC1(Nc2ccccc2)CCN(CCc2ccccc2)CC1 | 1320 cells
10 | COc1ccc(NC2CCN(C(=O)OC(C)(C)C)CC2)cc1 | 1170 cells
11 | CN1CCN(CCOC(=O)C(O)(c2ccccc2)c2ccccc2)CC1 | 1460 cells
12 | CN(C)c1cccc(C(=O)NCC2(N3CCCCC3)CCCCC2)c1 | 1270 cells
13 | COc1ccc(CN(CCCl)CCCl)cc1Cl | 1580 cells
14 | CC(C)c1ccc(NC2CCN(C(=O)OC(C)(C)C)CC2)cc1 | 1140 cells
15 | COc1ccc(C(=O)NCC2(N3CCOCC3)CCCCC2)cc1OC | 1300 cells
16 | O=C(OC1CN2CCC1CC2)C1c2ccccc2C=Cc2ccccc21 (configuration not stated) | 1100 cells
17 | N/C(=N\O)c1c(N)no[n+]1[O-] | 1300 cells
18 | N#Cc1ccc(C(=O)NCC2(N3CCCCC3)CCCCC2)cc1 | 1280 cells
19 | c1ccc(CN2CCC(Nc3ccccc3)CC2)cc1 | 808 cells
20 | Fc1ccccc1NC1CCN(Cc2ccccc2)CC1 | 1310 cells
21 | CN(C)c1ccc(C(=O)NCC2(N3CCCCC3)CCCCC2)cc1 | 1370 cells
22 | CCN1CCC(Nc2cccc(F)c2)CC1 | 1260 cells
23 | CC(C)(C)OC(=O)N1CCC(Nc2ccccc2)CC1 | 1100 cells
24 | CCOc1ncccc1C(=O)NCC1(N2CCOCC2)CCCCC1 | 1190 cells
25 | CCCOc1ccc(C)cc1CN(CCCl)CCCl | 1320 cells
26 | CCC(CO)(C(=O)OC1CN2CCC1CC2)c1ccccc1 (configuration not stated) | 1280 cells
27 | COc1cc(OC)cc(C(=O)NCC2(N3CCOCC3)CCCCC2)c1 | 1220 cells

Reference: PubChem BioAssay AID1625 (Sanford-Burnham Center for Chemical Genomics, 2009)
